# Where “and” joins values, the source holds several entries; their conditions need not be identical. Equal entries are not always repeated. The whole screen tested about 580,000 compounds, of which about 6,100 (1.1%) were called active. The inconclusive results got no clear call from the source; some entries with a clear call stand among them for comparison. Calls come from the whole dose curve; as a rule, active = well fitted inhibition curve with a large enough effect; inconclusive = small, poorly fitted or top-dose-only effect, or another doubt; inactive = no such curve, though single readings can be large or run the other way. A potency beside an inconclusive call is a rough fit, not a confirmed value. Square brackets hold non-standard residues; d marks the D form. Peptide text beside a SMILES is read from it. * marks the point of attachment. Tic = O=C(O)[C@@H]1Cc2ccccc2CN1; Boc = CC(C)(C)OC(=O)*; NHPr = CCCN*
# Chains of the proteins cited; added tags and fusions are not shown. Lines headed by an entry give the natural chain unless they say otherwise; changes in a name come on top.
# UniProt P18054: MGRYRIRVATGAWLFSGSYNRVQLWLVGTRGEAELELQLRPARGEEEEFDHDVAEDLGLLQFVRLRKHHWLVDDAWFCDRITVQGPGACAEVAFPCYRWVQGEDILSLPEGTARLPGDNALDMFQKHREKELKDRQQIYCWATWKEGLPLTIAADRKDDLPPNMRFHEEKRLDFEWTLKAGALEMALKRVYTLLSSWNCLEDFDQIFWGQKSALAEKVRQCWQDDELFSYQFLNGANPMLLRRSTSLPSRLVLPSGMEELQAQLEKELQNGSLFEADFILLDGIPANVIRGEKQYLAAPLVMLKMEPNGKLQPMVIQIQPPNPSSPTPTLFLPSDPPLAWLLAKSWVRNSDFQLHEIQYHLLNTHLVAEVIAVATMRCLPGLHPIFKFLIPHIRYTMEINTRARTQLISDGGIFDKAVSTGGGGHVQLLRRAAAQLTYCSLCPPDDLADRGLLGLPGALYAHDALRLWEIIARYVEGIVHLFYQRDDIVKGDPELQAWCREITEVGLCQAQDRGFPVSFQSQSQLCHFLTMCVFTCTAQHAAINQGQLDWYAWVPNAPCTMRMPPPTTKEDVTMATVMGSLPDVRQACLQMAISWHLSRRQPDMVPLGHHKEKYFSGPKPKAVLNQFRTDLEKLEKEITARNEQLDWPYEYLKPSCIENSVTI
# Biological target: Polyunsaturated fatty acid lipoxygenase ALOX12 (Homo sapiens) (UniProt P18054)
# Test: Primary qHTS assay for inhibitors of human arachidonate 12S-lipoxygenase (ALOX12): Round 2
# Settings: purified 12hLO, xylenol orange hydroperoxide absorbance; activity change, negative = inhibition: at 108 µM (top of the series) unless noted
# Summary of the method: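 Purified human 12hLO (150 nM final) in 25 mM Hepes, 0.01% Triton X-100, pH 7.0 was preincubated 15 min at room temperature with compound. Then 40 uM arachidonic acid was added, 30 min. Hydroperoxide was read by Fe-XO absorbance ratio 573/405 nm.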
# % is set by controls: 0 for no effect and ±100 for the full control effect; potency is the fitted concentration of half-maximal effect.
Compound,"activity change, negative = inhibition",Potency
CC1CCCN(S(=O)(=O)c2ccc(-c3nc(C#N)c(NCCc4ccccc4)o3)cc2)C1 (configuration not stated),inactive: 4.28%,–
CCCNC(=O)C(N)Cc1c[nH]c2ccccc12 (configuration not stated),–,"inconclusive: 20 µM [inhibitor, full curve]"
CCN(CC)S(=O)(=O)c1ccc(Cl)c(C(=O)N2CCCC2C(=O)O)c1 (configuration not stated),inactive: -2.14%,–
CCc1cccc(NC(=O)N2c3ccccc3CC2c2nc(CCOC)no2)c1 (configuration not stated),inactive: 36.1%,–
CCN1CCN(c2oc(-c3ccccc3F)nc2C#N)CC1,–,"inconclusive: 31.6 µM [inhibitor, partial curve, poor fit]"
COc1ccccc1C1=NOC(C)(c2nnc(-c3cccc(Cl)c3)o2)C1 (configuration not stated),–,"inconclusive: 39.8 µM [inhibitor, partial curve, poor fit]"
S=C(NCc1ccco1)N/N=C/c1ccncc1,–,"inconclusive: 141 µM [inhibitor, single point]"
O=C(Nc1nnc(C2=COCCO2)o1)c1ccc(Br)cc1,–,"inconclusive: 25.1 µM [inhibitor, partial curve, poor fit]"
CCOc1ccccc1NC(=S)NCCc1ccc(F)cc1,–,"inconclusive: 44.7 µM [inhibitor, partial curve, poor fit]"
COc1ccc(-n2c(SCC(=O)Nc3ccccc3OC)nc(O)cc2=O)cc1,–,"inconclusive: 56.2 µM [inhibitor, partial curve, poor fit]"
Cc1ccc(C(=O)NCCN2C3=NC[C@H](Cc4ccc(O)cc4)N3C[C@H]2Cc2ccc(O)cc2)cc1Br,–,"inconclusive: 70.8 µM [inhibitor, partial curve, poor fit]"
CC(=O)c1cccc(S(=O)(=O)Nc2ccccc2N2CCOCC2)c1,–,"inconclusive: 100 µM [inhibitor, partial curve, poor fit]"
COC(=O)c1cccc(S(=O)(=O)NCc2ccc(N3CCCC3)nc2)c1,–,"inconclusive: 50.1 µM [inhibitor, partial curve, poor fit]"
CCn1nc(C)cc1-c1nnc(SCC(=O)Nc2ccccc2)n1CCCOC,inactive: 164%,–
CC(C)NC(=O)c1nc(-c2ccc(COc3ccc4c(c3)OCO4)cc2)no1,inactive: 20.6%,–
O=C(NCc1ccccc1)c1nc(S(=O)(=O)Cc2ccc(F)cc2)ncc1Cl,–,"inconclusive: 89.1 µM [inhibitor, partial curve, poor fit] and inconclusive: 63.1 µM [inhibitor, partial curve, poor fit]"
CN(CC(=O)N(C)C1CCS(=O)(=O)C1)c1ccc2ccccc2c1 (configuration not stated),–,"inconclusive: 50.1 µM [inhibitor, partial curve, poor fit]"
Cc1ccc(S(=O)(=O)/N=C2\CN(C)C(=O)N2C)cc1,inactive: -20.1%,–
CCCNC(=O)[C@@H](NC(=O)[C@@H]1Cc2ccccc2CN1C(=O)OC(C)(C)C)C(C)C (Boc-[Tic]-Val-NHPr),–,"inconclusive: 17.8 µM [inhibitor, full curve]"
Cc1ccc(/C=C/c2onc(C)c2S(=O)(=O)N2CCC(C(=O)N3CCN(c4cccc(C)c4)C(C)C3)CC2)cc1 (configuration not stated),inactive: 0%,–
Cc1ccc(C(=O)NC(=S)NCc2ccco2)cc1,–,"inconclusive: 44.7 µM [inhibitor, partial curve, poor fit]"

Compound,"activity change, negative = inhibition",Potency
Clc1ccccc1N/N=C/c1cccc(/C=N/Nc2ccccc2Cl)c1,–,"inconclusive: 0.562 µM [inhibitor, full curve, poor fit]"
N#CC1=C(N)Oc2cc(O)c(C=Nc3ccccc3)cc2C1c1ccccc1 (configuration not stated),–,"inconclusive: 44.7 µM [inhibitor, partial curve, poor fit]"
O=C(Nc1cccc(CN2CCOC2=O)c1)N1CCN(c2ccccc2)CC1,–,"inconclusive: 0.251 µM [inhibitor, full curve, poor fit]"
CC(C)CCOc1ccc(C2N=C(N)Nc3nc4ccccc4n32)cc1 (configuration not stated),–,"inconclusive: 56.2 µM [inhibitor, partial curve, poor fit]"
COc1cccc(C(=O)Nc2nc(-c3ccncc3)cs2)c1,inactive: -0.0261%,–
COc1ccc(C)cc1NC(=O)CSCc1cc(=O)n2c(C)csc2n1,inactive: 9.94%,–
Cc1nc(-c2ccccc2)sc1C(=O)Nc1ccc2[nH]c(=O)[nH]c2c1,inactive: -53.1%,–
CCOc1ccc(-c2cn3c(n2)sc2cc(C(=O)NCCc4ccc(OC)cc4OC)ccc23)cc1,inactive: -2.85%,–
CC(C)C[C@@H](CN1CCCC1CN1C(=S)NC[C@@H]1Cc1ccccc1)N1C[C@H](Cc2ccccc2)N(CC2CCCCCC2)C1=S (some centres not stated),–,active: 35.5 µM
COc1ccccc1C1CC(=O)N(c2ccc(C)cc2)C2=C1C(=O)OC2 (configuration not stated),inactive: 19.1%,–
CS(=O)(=O)N[C@@H]1C[C@H](Cn2cc(C3CC3)nn2)[C@@H](O)[C@H]1O,–,"inconclusive: 35.5 µM [inhibitor, full curve, poor fit]"
NC(=O)COc1cc(OCC(N)=O)c(Cl)cc1Cl,inactive: 4.78%,–
COc1ccc(-c2c3c(=O)n(C)c(=O)n(C)c3cn2-c2ccc(O)cc2)cc1,inactive: 12%,–
O=C(Cc1c[nH]c2ccccc12)Nc1nc2ccccc2s1,–,"inconclusive: 44.7 µM [inhibitor, partial curve, poor fit]"
CCCCOc1ccc(C2(C)NC(=O)N(C)C2=O)cc1 (configuration not stated),–,"inconclusive: 112 µM [inhibitor, single point]"
C/C(=N/NC(=O)c1ccoc1C)C12CC3CC(CC(C3)C1)C2,–,"inconclusive: 22.4 µM [inhibitor, single point]"
COc1ccc(NC(=O)CCc2c(OC)nc3c(c(C)nn3-c3ccccc3)c2C)cc1,inactive: -16.5%,–
COc1cccc(C(NC(C)=O)c2ccc3cccnc3c2O)c1 (configuration not stated),inactive: 19%,–
Cc1ccc(S(=O)(=O)N2CC(O)CC2C(=O)OCc2nc3sc(C)c(C)c3c(=O)[nH]2)cc1 (configuration not stated),–,"inconclusive: 28.2 µM [inhibitor, partial curve, poor fit]"
CC1(C)c2ccccc2N2CC(=O)NC21/C=C/c1ccco1 (configuration not stated),–,"inconclusive: 44.7 µM [inhibitor, partial curve, poor fit]"

# Some of these compounds in order of molecular weight, rising:
Compound,"activity change, negative = inhibition",Potency
CCCNC(=O)C(N)Cc1c[nH]c2ccccc12 (configuration not stated),–,"inconclusive: 20 µM [inhibitor, full curve]"
Cc1nc(-c2ccccc2)sc1C(=O)Nc1ccc2[nH]c(=O)[nH]c2c1,inactive: -53.1%,–
N#CC1=C(N)Oc2cc(O)c(C=Nc3ccccc3)cc2C1c1ccccc1 (configuration not stated),–,"inconclusive: 44.7 µM [inhibitor, partial curve, poor fit]"
COC(=O)c1cccc(S(=O)(=O)NCc2ccc(N3CCCC3)nc2)c1,–,"inconclusive: 50.1 µM [inhibitor, partial curve, poor fit]"
CCCNC(=O)[C@@H](NC(=O)[C@@H]1Cc2ccccc2CN1C(=O)OC(C)(C)C)C(C)C (Boc-[Tic]-Val-NHPr),–,"inconclusive: 17.8 µM [inhibitor, full curve]"
COc1ccc(NC(=O)CCc2c(OC)nc3c(c(C)nn3-c3ccccc3)c2C)cc1,inactive: -16.5%,–
CCOc1ccc(-c2cn3c(n2)sc2cc(C(=O)NCCc4ccc(OC)cc4OC)ccc23)cc1,inactive: -2.85%,–
CC(C)C[C@@H](CN1CCCC1CN1C(=S)NC[C@@H]1Cc1ccccc1)N1C[C@H](Cc2ccccc2)N(CC2CCCCCC2)C1=S (some centres not stated),–,active: 35.5 µM

# Source: PubChem BioAssay AID1671190 (National Center for Advancing Translational Sciences (NCATS), 2021)
